PubChem BioAssay AID1259405 – NCATS | 2018

Screen: 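Silenced genes that increase secreted GFP made by CHO cells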 (primary screen)
Cells: Chinese hamster CHO-K1 ovary cells with stable secreted eGFP expression
Knock-down reagent: single siRNA against mouse genes, 0.8 pmol siRNA per well (2 µl of 400 nM stock)
Time to read-out: 3 days
Measurement: 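Per-well intracellular GFP measured by laser scanning cytometry, plus viability from ATP luminescence, each relative to plate median of non-targeting control wells, in %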
Scale: GFP, % of control: higher = more GFP per well, higher productivity; viability (ATP), % of control: higher = more viable cells (more ATP)
Active means: 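Called active when intracellular GFP, relative to negative control, is at or above 120%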
In all, the deposit lists about 50,000 reagents; shown is an unselected part. Over the whole deposit, about 4,000 (8%) were called active. 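Mouse siRNA library applied to hamster cells; one well for each siRNA.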 Entries without a mark were called inactive. No sequences are given here.

Htr1a [SID363571410]
- GFP, % of control: 115
- viability (ATP), % of control: 97.6

Htr1a [SID363571762]
- GFP, % of control: 103
- viability (ATP), % of control: 76.3

Htr1a [SID363572114]
- GFP, % of control: 68.8
- viability (ATP), % of control: 97.4

Bzw2 [SID363545554]
- GFP, % of control: 46.5
- viability (ATP), % of control: 63.8

Bzw2 [SID363549067]
- GFP, % of control: 48
- viability (ATP), % of control: 67.8

Bzw2 [SID363562873]
- GFP, % of control: 43.5
- viability (ATP), % of control: 40.7

Ammecr1 [SID363546606]
- GFP, % of control: 75.9
- viability (ATP), % of control: 51.9

Ammecr1 [SID363548362]
- GFP, % of control: 50.3
- viability (ATP), % of control: 51.4

Ammecr1 [SID363560540]
- GFP, % of control: 92.3
- viability (ATP), % of control: 91.9

Bex2 [SID363546911]
- GFP, % of control: 63.5
- viability (ATP), % of control: 53.5

Bex2 [SID363549723]
- GFP, % of control: 62.4
- viability (ATP), % of control: 80

Bex2 [SID363587777]
- GFP, % of control: 118
- viability (ATP), % of control: 132

Utf1 [SID363556595]
- GFP, % of control: 63.1
- viability (ATP), % of control: 40.3

Utf1 [SID363563499]
- GFP, % of control: 77.8
- viability (ATP), % of control: 74.3

Utf1 [SID363587045]
- GFP, % of control: 57.4
- viability (ATP), % of control: 82.5

BC107364 [SID363539724]
- GFP, % of control: 42.9
- viability (ATP), % of control: 68.5

BC107364 [SID363561025]
- GFP, % of control: 51.8
- viability (ATP), % of control: 55.1

BC107364 [SID363565115]
- GFP, % of control: 101
- viability (ATP), % of control: 92.9

A run of entries taken from the entries so far:
Htr1a [SID363571762]
- GFP, % of control: 103
- viability (ATP), % of control: 76.3

Htr1a [SID363572114]
- GFP, % of control: 68.8
- viability (ATP), % of control: 97.4
